In PubChem BioAssay AID504467 (National Center for Advancing Translational Sciences (NCATS), 2011):
The campaign covered roughly 330,000 compounds. About 7,700 (2.3%) were called active. Where a call stands in place of a potency, no number is given. This list was built around the results that the source calls inconclusive (neither active nor inactive); the mix of calls is not that of the screen. The call rests on the fitted dose curve; in most records, active means well fitted inhibition curve with a large enough effect; inconclusive means small, poorly fitted or top-dose-only effect, or effect the other way; inactive means flat fitted curve, though single readings scatter. A potency beside an inconclusive call is a rough fit, not a confirmed value.

test: qHTS screen for small molecules that inhibit ELG1-dependent DNA repair in human embryonic kidney (HEK293T) cells expressing luciferase-tagged ELG1; conditions: HEK293T ELG1-luciferase reporter, luminescence, 16 h, DNA damage induced by 5-fluorouridine; series mostly up to 46.1 µM; further: nearly all actives have a fitted effect of over 55% in size
Method in brief: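 Quantitative HTS, concentration-response format. 2,000 cells/well co-treated with 5-fluorouridine and compound, 16 hr in 5% CO2 at 37 °C; ONE-Glo luminescence read after 30 min.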
Potency means the concentration at half of the fitted maximal effect.

Compound	Potency
CC(=O)c1cnc2c(-c3ccccc3)c(-c3ccccc3)nn2c1C	inactive
CC(NC(=O)c1cc(S(=O)(=O)N2CCCC2)ccc1Cl)c1ccccn1 (stereo unspecified)	inactive
O=S(=O)(CCN(CCS(=O)(=O)C(F)(F)F)CC1CCCO1)C(F)(F)F (stereo unspecified)	inconclusive: 16.4 µM [activator, partial curve, poor fit]
Cc1nc(-c2cccs2)sc1C(=O)O	inactive
Cc1cc(C)c(-c2csc(NC(=O)C3=COCCO3)n2)c(C)c1	inactive
CCCc1nc(N2CCN(S(=O)(=O)c3ccc(Cl)cc3)CC2)c2c(C)c(C)sc2n1	inconclusive: 16.4 µM [inhibitor, single point]
Cc1cc(C)cc(NC(=O)CN2C(=O)COc3ccc(S(=O)(=O)N4CCCC4)cc32)c1	inactive
O=C(NCc1ccc(F)cc1)C1CCCN(S(=O)(=O)c2ccc(-n3cnnn3)cc2)C1 (stereo unspecified)	inactive
CC(C)(CNC(=O)COc1ccccc1Cc1ccccc1)N1CCOCC1	inactive
COC(=O)c1ccccc1NC(=O)Nc1ccc(C(=O)N2CCCC2)cc1	inactive
CC(C)c1ccc(CNc2ncc(Br)cn2)cc1	inconclusive: 23.1 µM [activator, partial curve]
CS(=O)(=O)N(CC(=O)Nc1ccccc1C(=O)N1CCOCC1)c1ccc(Cl)cc1	inconclusive: 29.1 µM [activator, partial curve, poor fit]
CC(C)c1ccc2nc(NC(=O)C3CC3)sc2c1	inconclusive: 3.26 µM [activator, full curve]
COc1ccc(OC)c(NC(=O)CCN2CCN(c3ccccc3F)CC2)c1	inconclusive: 29.1 µM [inhibitor, single point]
Cc1cc(SCC(=O)c2cccs2)n2nc(C)c(-c3ccc(Cl)cc3)c2n1	inconclusive: 5.8 µM [inhibitor, partial curve]
CCn1cc(C(=O)Nc2sc(C)c(C)c2C(=O)OC)cn1	inconclusive: 20.6 µM [inhibitor, single point]
Cn1c(N)c(C(=O)COC(=O)/C=C/c2ccccc2Cl)c(=O)n(C)c1=O	inconclusive: 16.4 µM [activator, single point]
COc1ccc(C(=O)Cn2cc([N+](=O)[O-])nc2C)cc1	inactive
Cc1cccc(C(=O)Nc2cccc(C(=O)N/N=C/c3cccc(C)n3)c2)c1	inactive
Cc1cccc(NC(=S)NC2CC3CCCC(C2)N3Cc2cccs2)c1C (stereo unspecified)	inactive
CC(C)OC(=O)c1cc(NC(=S)Nc2ccc([N+](=O)[O-])cc2)cc(C(=O)OC(C)C)c1	inconclusive: 29.1 µM [inhibitor, single point]

2 entries picked at random from the list so far:
Compound	Potency
CCn1cc(C(=O)Nc2sc(C)c(C)c2C(=O)OC)cn1	inconclusive: 20.6 µM [inhibitor, single point]
COC(=O)c1ccccc1NC(=O)Nc1ccc(C(=O)N2CCCC2)cc1	inactive
